This is one part of the list. Values are raw readings; no control value is given beside them.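 Primary screen: polymyxin B was added at a level permeabilizing Salmonella outer membranes while sparing inner membranes. DMSO wells, both with and without polymyxin B, established maximum growth. Plate-to-plate variation meant each plate was ranked on its own, and the lowest-OD600 compounds were selected as hits.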
Test system: Salmonella enterica serovar Typhimurium SL1344
Assay: bacterial growth OD600 after 18 h with compound and polymyxin B; higher = more bacterial growth (less inhibition)
Settings: 50 µM, Mueller-Hinton broth

| SMILES | bacterial growth OD600 (polymyxin B 1 µg/mL) | bacterial growth OD600 (polymyxin B 0.75 µg/mL) |
| --- | --- | --- |
| Cc1nnc(SCC(=O)NC2CCCN(C3Cc4ccccc4C3)C2)s1 (configuration not stated) | 0.932 |  |
| COc1ccc(CC2(CCC(=O)NCc3cc(F)cc(F)c3)CCC(=O)N2)c2ccccc12 (configuration not stated) |  | 0.741 |
| CC(CNCc1cccnc1N1CCOCC1)Cc1ccc2c(c1)OCO2 (configuration not stated) | 0.951 |  |
| CC1CN(CCC(=O)NCC(c2ccncc2)N2CCOCC2)Cc2cc(Cl)ccc2O1 (configuration not stated) |  | 1.02 |
| CSCCC(=O)N1CCOC(CCN(C)C)C1 (configuration not stated) |  | 0.9 |
| COc1cccc(CCC2CCCN(C(=O)c3ccc(=O)n(C)n3)C2)c1 (configuration not stated) |  | 0.827 |
| COc1cccc(-c2cc(CC3(O)CCN(Cc4cccc5cccnc45)CC3)on2)c1 | 0.906 |  |
| CCN1C(=O)CC(CC(=O)N2CC3CCC2C3)(c2cccc(C(F)(F)F)c2)C1=O (configuration not stated) |  | 0.749 |
| CCCN1CCCN(c2ccc(C(=O)NCCCc3c(C)noc3C)cn2)CC1 | 1.19 |  |
| COc1ccccc1OCC(=O)NCC1CCCN(C(=O)CSc2ccccc2)C1 (configuration not stated) | 0.919 |  |
| CN1C(=O)CC(CC(=O)N2CCCCC2c2nccs2)(c2ccc(-c3ccccc3)cc2)C1=O (configuration not stated) |  | -0.001 |
| COCCN1C(=O)CC(CC(=O)N(CCOC)C(C)C)(c2ccccc2OC)C1=O (configuration not stated) |  | 0.815 |
| CC(=O)c1cc(CN2CCCCC2C(=O)Nc2ccc(-n3cccn3)cc2)cs1 (configuration not stated) | 0.986 |  |
| Cc1c(C(C)NC(=O)c2ccc3c(c2)OCCO3)cnn1-c1ccccn1 (configuration not stated) | 0.963 |  |
| COc1ccc(S(=O)(=O)NCC2CCCN(Cc3cnc(SC)nc3)C2)cc1 (configuration not stated) | 0.772 |  |
| CCN1CCN(C(=O)c2cnn(-c3nccc(-c4cccc(OC)c4)n3)c2C2CC2)CC1 |  | 0.925 |

| SMILES | bacterial growth OD600 (polymyxin B 1 µg/mL) | bacterial growth OD600 (polymyxin B 0.75 µg/mL) |
| --- | --- | --- |
| COc1ccc(C(=O)NC2CC(=O)N(CCCc3ccccc3)C2)cc1 (configuration not stated) | 0.922 |  |
| O=C(c1cn(Cc2ccccc2Cl)nn1)N1CCSCC1 | 1.1 |  |
| COc1cccc(CCNC2CCN(c3ccc(NC(=O)c4ccc(C)cc4C)cc3)CC2)c1 |  | 0.807 |
| COC(=O)c1cccc(-c2cc(Cl)c3c(c2)CC(CNC(=O)Cn2nc(C)nc2C)O3)c1 (configuration not stated) |  | 0.807 |
| Cc1ccc(OCc2cc(C(=O)NCCN3CCCCC3=O)no2)cn1 | 0.996 |  |
| O=C(NCC1(O)CCCCC1)c1cc(COc2cccc(F)c2)[nH]n1 | 1.01 |  |
| COc1cc2c(cc1CN1CC[C@@H](N3CCN(c4ccccn4)CC3)[C@H](O)C1)OCO2 | 0.869 |  |
| CN(C)S(=O)(=O)Nc1ccc(N2CCC(NCc3ccc(OC(F)(F)F)cc3)CC2)cc1 |  | 0.751 |
| O=C(C1CCCN(c2nc3nonc3nc2N2CCSCC2)C1)N1CCOCC1 (configuration not stated) |  | 0.795 |
| CSc1ccccc1C(=O)NCc1c(C)ncc2c1CCN(C(=O)c1ccc(F)cc1Cl)C2 |  | 0.782 |
| COCc1ccc(C(=O)NCc2c(C)ncc3c2CCN(C(=O)c2cccc(C(F)(F)F)c2)C3)o1 |  | 0.831 |
| O=C(NCCc1ccncc1)c1coc(COc2ccc(F)cc2)n1 | 0.932 |  |
| COC(=O)CCCNC(=O)c1ccc(OC2CCN(S(C)(=O)=O)CC2)c(Cl)c1 | 1 |  |
| OCCC1CN(Cc2c(F)cccc2F)CCN1C1CCCC1 (configuration not stated) | 1.04 |  |
| Cc1cc2nc(N3CCC(NCc4csc(C(C)C)n4)CC3)nc(C)c2cc1C |  | 0.799 |
| O=C1CCC(C(=O)N2CCC(Cc3ccc(F)cc3)CC2)CN1CCN1CCOCC1 (configuration not stated) | 1.09 |  |

Quoted from above for reference:

| SMILES | bacterial growth OD600 (polymyxin B 1 µg/mL) | bacterial growth OD600 (polymyxin B 0.75 µg/mL) |
| --- | --- | --- |
| O=C(NCC1(O)CCCCC1)c1cc(COc2cccc(F)c2)[nH]n1 | 1.01 |  |
| COc1cc2c(cc1CN1CC[C@@H](N3CCN(c4ccccn4)CC3)[C@H](O)C1)OCO2 | 0.869 |  |
